Assay [1] deals with T1, Topoisomerase 3β (TOP3B), endogenous (human (endogenous in HEK293 and HCT116)) (UniProt O95985).
T1 sequence: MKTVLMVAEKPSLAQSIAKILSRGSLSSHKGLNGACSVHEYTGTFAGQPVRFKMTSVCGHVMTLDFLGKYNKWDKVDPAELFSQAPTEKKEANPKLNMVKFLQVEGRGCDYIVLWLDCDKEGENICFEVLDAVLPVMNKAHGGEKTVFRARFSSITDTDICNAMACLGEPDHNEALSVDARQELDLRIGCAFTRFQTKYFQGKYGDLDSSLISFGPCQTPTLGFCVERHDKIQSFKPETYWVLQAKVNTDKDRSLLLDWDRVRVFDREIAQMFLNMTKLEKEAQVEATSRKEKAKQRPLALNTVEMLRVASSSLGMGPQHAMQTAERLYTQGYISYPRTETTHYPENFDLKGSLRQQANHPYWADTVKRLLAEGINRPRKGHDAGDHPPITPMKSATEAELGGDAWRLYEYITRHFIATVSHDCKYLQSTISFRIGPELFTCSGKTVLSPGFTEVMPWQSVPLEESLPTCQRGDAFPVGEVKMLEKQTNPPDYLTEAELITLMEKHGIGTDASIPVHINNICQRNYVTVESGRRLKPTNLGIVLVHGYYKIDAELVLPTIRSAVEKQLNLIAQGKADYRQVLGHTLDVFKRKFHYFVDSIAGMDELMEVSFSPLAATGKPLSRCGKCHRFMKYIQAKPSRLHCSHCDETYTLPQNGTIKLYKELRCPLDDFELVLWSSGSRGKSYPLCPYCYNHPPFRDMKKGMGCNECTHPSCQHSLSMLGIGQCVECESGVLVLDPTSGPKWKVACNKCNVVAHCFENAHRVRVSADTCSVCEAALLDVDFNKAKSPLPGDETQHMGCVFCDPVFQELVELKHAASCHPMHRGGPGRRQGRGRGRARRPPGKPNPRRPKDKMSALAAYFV
Description: co-IP; TOP3B pulled down from chromatin fractions isolated from HEK293 cells, Western blot. A general note: In western blotting, separated proteins are transferred to a membrane and probed.

The target in assay [2] is T1, Topoisomerase 3β (TOP3B), endogenous (human (endogenous in HEK293 and HCT116)). Description: co-IP; endogenous proteins precipitated with antibody (USP9X, TOP3B, MIB1 or TDRD3; 3 ug/tube) and Protein A/G magnetic beads from HEK293 or HCT116 lysate in IP lysis buffer with benzonase (total cellular TOP3B), beads washed with RIPA buffer, Western blot; some samples siTDRD3-transfected with MG132.

The target is the same in assay [3]. Nature of the assay: condition: only free TOP3B (no nuclease/benzonase in IP buffer); co-IP; TOP3B pulled down from HEK293 cells with no nuclease/benzonase in IP buffer (free TOP3B), Western blot.

These are yes or no findings as the source states them, for the method shown. Binding seen in cells or lysates may run through a third protein. Some entries that bind do so weakly or less than the wild type.

B1: TRIM41, endogenous (enzyme, UniProt Q8WV44 1-630)
chain: MAAVAMTPNPVQTLQEEAVCAICLDYFTDPVSIGCGHNFCRVCVTQLWGGEDEEDRDELDREEEEEDGEEEEVEAVGAGAGWDTPMRDEDYEGDMEEEVEEEEEGVFWTSGMSRSSWDNMDYVWEEEDEEEDLDYYLGDMEEEDLRGEDEEDEEEVLEEVEEEDLDPVTPLPPPPAPRRCFTCPQCRKSFPRRSFRPNLQLANMVQVIRQMHPTPGRGSRVTDQGICPKHQEALKLFCEVDEEAICVVCRESRSHKQHSVVPLEEVVQEYKAKLQGHVEPLRKHLEAVQKMKAKEERRVTELKSQMKSELAAVASEFGRLTRFLAEEQAGLERRLREMHEAQLGRAGAAASRLAEQAAQLSRLLAEAQERSQQGGLRLLQDIKETFNRCEEVQLQPPEVWSPDPCQPHSHDFLTDAIVRKMSRMFCQAARVDLTLDPDTAHPALMLSPDRRGVRLAERRQEVADHPKRFSADCCVLGAQGFRSGRHYWEVEVGGRRGWAVGAARESTHHKEKVGPGGSSVGSGDASSSRHHHRRRRLHLPQQPLLQREVWCVGTNGKRYQAQSSTEQTLLSPSEKPRRFGVYLDYEAGRLGFYNAETLAHVHTFSAAFLGERVFPFFRVLSKGTRIKLCP
With B1, the binding result in assay [1] was “binds”; in assay [2], “binds”; in assay [3] it was “no binding”.

These data come from PMC10657456.
